Laboratory results published in patent US20240043838A1.
No constants are given. Whether binding was seen depends on the method and setting. In cells and extracts the contact can be indirect. Some entries that bind do so weakly or less than the wild type. Sequences can lack the tags named with a protein. Blank lines part the entries; values can stand above or below the molecule they belong to.

Protein sequences, listed by entry. Tags and fused reporters are not part of them. Lines headed by an entry give the natural chain unless they say otherwise; changes in a name come on top. Chains listed by the source or under a name are the forms on record and can include a tag or linker. Residues count along the entry.
UniProt Q8K212: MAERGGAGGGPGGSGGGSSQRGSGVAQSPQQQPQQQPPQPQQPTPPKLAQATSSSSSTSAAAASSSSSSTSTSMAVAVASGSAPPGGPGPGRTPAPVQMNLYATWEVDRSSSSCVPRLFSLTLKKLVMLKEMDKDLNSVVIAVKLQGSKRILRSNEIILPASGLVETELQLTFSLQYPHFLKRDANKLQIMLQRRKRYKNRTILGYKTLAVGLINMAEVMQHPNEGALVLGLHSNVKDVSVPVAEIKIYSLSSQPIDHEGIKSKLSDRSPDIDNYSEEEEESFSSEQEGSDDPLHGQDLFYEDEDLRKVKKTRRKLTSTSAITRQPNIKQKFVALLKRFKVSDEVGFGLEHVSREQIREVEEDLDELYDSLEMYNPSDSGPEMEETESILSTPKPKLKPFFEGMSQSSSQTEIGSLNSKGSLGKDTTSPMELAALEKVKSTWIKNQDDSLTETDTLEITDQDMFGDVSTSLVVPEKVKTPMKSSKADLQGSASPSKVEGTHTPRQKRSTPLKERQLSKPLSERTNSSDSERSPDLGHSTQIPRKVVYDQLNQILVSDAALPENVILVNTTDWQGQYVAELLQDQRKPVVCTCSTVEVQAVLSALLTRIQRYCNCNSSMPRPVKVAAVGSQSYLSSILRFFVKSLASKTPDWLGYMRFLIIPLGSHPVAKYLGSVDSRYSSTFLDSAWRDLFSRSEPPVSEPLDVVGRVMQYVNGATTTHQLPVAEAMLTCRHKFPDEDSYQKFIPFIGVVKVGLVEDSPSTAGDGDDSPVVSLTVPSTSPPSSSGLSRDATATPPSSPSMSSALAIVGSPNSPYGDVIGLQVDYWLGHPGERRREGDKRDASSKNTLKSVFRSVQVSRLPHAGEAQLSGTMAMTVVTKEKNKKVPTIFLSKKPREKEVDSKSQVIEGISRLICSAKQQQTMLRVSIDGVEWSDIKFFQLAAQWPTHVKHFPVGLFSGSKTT
FLAG-tagged Pacs1 (amino acids 171-961): residues 171-961 of Q8K212

How the values were obtained:
FLAG-Wdr37 (mouse) [1] = biological target: T1, FLAG-Wdr37 (mouse) (UniProt Q8CBE3); experiment: reciprocal co-immunoprecipitation on anti-FLAG resin, co-transfected HEK 293T cells, western blot
T1 sequence (looked up): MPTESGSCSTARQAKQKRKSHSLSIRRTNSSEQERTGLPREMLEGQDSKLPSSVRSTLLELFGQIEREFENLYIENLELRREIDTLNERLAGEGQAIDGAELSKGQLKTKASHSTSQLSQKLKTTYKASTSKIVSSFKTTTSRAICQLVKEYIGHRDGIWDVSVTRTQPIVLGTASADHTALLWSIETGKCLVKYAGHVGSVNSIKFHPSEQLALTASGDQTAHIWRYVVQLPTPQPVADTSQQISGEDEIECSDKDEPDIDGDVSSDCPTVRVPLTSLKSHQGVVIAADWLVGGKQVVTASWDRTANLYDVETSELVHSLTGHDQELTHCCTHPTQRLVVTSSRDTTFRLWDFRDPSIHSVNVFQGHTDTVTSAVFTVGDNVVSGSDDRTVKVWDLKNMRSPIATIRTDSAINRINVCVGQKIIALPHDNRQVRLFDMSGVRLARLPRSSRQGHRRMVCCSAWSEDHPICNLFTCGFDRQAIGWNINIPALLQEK

FLAG-Wdr37 (mouse) [2] = biological target: T1, FLAG-Wdr37 (mouse); experiment: co-immunoprecipitation, co-transfected 293T cells
[3] = biological target: FLAG-tagged Pacs1 (amino acids 171-961) (mouse) (UniProt Q8K212); experiment: co-immunoprecipitation, co-transfected 293T cells
[4] = biological target: FLAG-tagged Pacs1 (amino acids 171-961) (mouse) (UniProt Q8K212); experiment: co-immunoprecipitation on anti-FLAG resin, co-transfected HEK 293T cells, western blot

binding (FLAG-Wdr37 (mouse) [1]): binds | binding (FLAG-Wdr37 (mouse) [2]): binds
Molecule: HA-Pacs1 (from UniProt Q8K212 114-961)

binding [3]: binds | binding [4]: binds
B1: HA-tagged full-length Wdr37 (protein, mouse, UniProt Q8CBE3 1-496, looked up, not shown: small tags and cut ends)
chain: T1 sequence (looked up)
